{
  "source": "the supplement of paper PMC4604168 (melanoma cell lines)",
  "note": "The list shows a part of the results. Many values rest on one well or one pass, so single values are uncertain.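 The apoptosis fraction was the count of cleaved-PARP antibody-stained nuclei relative to all DNA-stained nuclei, imaged in 1,536-well plates. Screening doses were set so most cells survived, and baseline and induced cleaved-PARP levels vary greatly across cell lines.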",
  "data": [
    {"system": "A2058", "assay": "cleaved PARP positive nuclei fraction relative to DMSO control; melanoma cells; higher = more apoptosis", "settings": "library dose: low library concentration; 72 h", "units": {"cleaved PARP positive nuclei fraction": "%"}, "values": [
      {"compound": "C=CCn1c(=O)c2cnc(Nc3ccc(N4CCN(C)CC4)cc3)nc2n1-c1cccc(C(C)(C)O)n1", "note": "+ O=S(=O)(c1ccccc1)N(CC(F)(F)F)c1ccc(C(O)(C(F)(F)F)C(F)(F)F)cc1 [T0901317] (first compound 0.02 µM, partner dose 1.4 µM)", "cleaved PARP positive nuclei fraction": 127},
      {"compound": "O=C(Nc1cccc(Cl)c1)Nc1ncc(CCNc2ncnc3ccsc23)s1", "note": "+ COc1cc(N2CCC(N3CCN(C)CC3)CC2)ccc1Nc1ncc(Cl)c(Nc2ccccc2S(=O)(=O)C(C)C)n1 [NVP-TAE684] (first compound 0.0008 µM, partner dose 0.08 µM)", "cleaved PARP positive nuclei fraction": 170},
      {"compound": "C[C@]1(c2nc3c(C(N)=O)cccc3[nH]2)CCCN1", "note": "[Veliparib] + COc1cc2ncnc(Nc3ccc(Oc4ccccc4)cc3)c2cc1OC [SrcI1] (first compound 1.4 µM, partner dose 2 µM)", "cleaved PARP positive nuclei fraction": 198},
      {"compound": "Cn1c(Nc2ccc(C(F)(F)F)cc2)nc2cc(Oc3ccnc(-c4ncc(C(F)(F)F)[nH]4)c3)ccc21", "note": "+ COc1ccc(COc2ccc(Cc3cnc(N)nc3N)cc2OC)cc1 [GW2580] (first compound 0.08 µM, partner dose 1 µM)", "cleaved PARP positive nuclei fraction": 76.4},
      {"compound": "COCC[n+]1c2c(n(Cc3cnccn3)c1C)C(=O)c1ccccc1C2=O", "note": "+ COc1ccc(COc2ccc(Cc3cnc(N)nc3N)cc2OC)cc1 [GW2580] (first compound 0.0004 µM, partner dose 1 µM)", "cleaved PARP positive nuclei fraction": 102},
      {"compound": "Cc1ccc(NC(=O)c2cccc(N(C)C)c2)cc1NC(=O)c1ccc(O)cc1", "note": "+ COC(=O)c1sccc1S(=O)(=O)Nc1ccc(Nc2ccccc2)cc1OC [GSK0660] (first compound 2 µM, partner dose 1 µM)", "cleaved PARP positive nuclei fraction": 111},
      {"compound": "COCC[n+]1c2c(n(Cc3cnccn3)c1C)C(=O)c1ccccc1C2=O", "note": "+ CC(C)CCN1c2nc(Nc3cc(F)c(O)c(F)c3)ncc2N(C)C(=O)C1C [BID1870] (first compound 0.0004 µM, partner dose 0.2 µM)", "cleaved PARP positive nuclei fraction": 202},
      {"compound": "CC(C)(C)c1cnc(CSc2cnc(NC(=O)C3CCNCC3)s2)o1", "note": "+ Cc1cc([N+](=O)[O-])ccc1NS(=O)(=O)c1cc(Cl)ccc1Cl [FH535] (first compound 0.01 µM, partner dose 1 µM)", "cleaved PARP positive nuclei fraction": 74},
      {"compound": "Cc1ccc(NC(=O)c2cccc(N(C)C)c2)cc1NC(=O)c1ccc(O)cc1", "note": "+ CCCCCCCCCCCC1=C(O)C(=O)C=C(O)C1=O [Embelin] (first compound 2 µM, partner dose 1.2 µM)", "cleaved PARP positive nuclei fraction": 25},
      {"compound": "Cc1ccc(NC(=O)c2cccc(N(C)C)c2)cc1NC(=O)c1ccc(O)cc1", "note": "+ COc1cc(N2CCC(N3CCN(C)CC3)CC2)ccc1Nc1ncc(Cl)c(Nc2ccccc2S(=O)(=O)C(C)C)n1 [NVP-TAE684] (first compound 2 µM, partner dose 0.08 µM)", "cleaved PARP positive nuclei fraction": 117},
      {"compound": "Cn1cncc1[C@@](N)(c1ccc(Cl)cc1)c1ccc2c(c1)c(-c1cccc(Cl)c1)cc(=O)n2C", "note": "[tipifarnib] + CCc1ccc(CCOc2ccc(CC3SC(=O)NC3=O)cc2)nc1 [pioglitazone] (first compound 0.01 µM, partner dose 2 µM)", "cleaved PARP positive nuclei fraction": 98.3},
      {"compound": "O=C(CCCCCCC(=O)Nc1ccccc1)NO", "note": "[vorinostat] + COc1cc(N2CCC(N3CCN(C)CC3)CC2)ccc1Nc1ncc(Cl)c(Nc2ccccc2S(=O)(=O)C(C)C)n1 [NVP-TAE684] (first compound 0.08 µM, partner dose 0.08 µM)", "cleaved PARP positive nuclei fraction": 122},
      {"compound": "O=C(Nc1cccc(Cl)c1)Nc1ncc(CCNc2ncnc3ccsc23)s1", "note": "+ COC(=O)c1sccc1S(=O)(=O)Nc1ccc(Nc2ccccc2)cc1OC [GSK0660] (first compound 0.0008 µM, partner dose 1 µM)", "cleaved PARP positive nuclei fraction": 79.1},
      {"compound": "C=CCn1c(=O)c2cnc(Nc3ccc(N4CCN(C)CC4)cc3)nc2n1-c1cccc(C(C)(C)O)n1", "note": "+ CC(C)CCN1c2nc(Nc3cc(F)c(O)c(F)c3)ncc2N(C)C(=O)C1C [BID1870] (first compound 0.02 µM, partner dose 0.2 µM)", "cleaved PARP positive nuclei fraction": 94.5},
      {"compound": "CO[C@@H]1[C@H](N(C)C(=O)c2ccccc2)C[C@H]2O[C@]1(C)n1c3ccccc3c3c4c(c5c6ccccc6n2c5c31)C(=O)NC4", "note": "[Midostaurin] + O=S(=O)(c1ccccc1)N(CC(F)(F)F)c1ccc(C(O)(C(F)(F)F)C(F)(F)F)cc1 [T0901317] (first compound 0.08 µM, partner dose 1.4 µM)", "cleaved PARP positive nuclei fraction": 97.3},
      {"compound": "Nc1cccc2c1CN(C1CCC(=O)NC1=O)C2=O", "note": "(configuration not stated) [lenalidomide] + COC(=O)c1sccc1S(=O)(=O)Nc1ccc(Nc2ccccc2)cc1OC [GSK0660] (first compound 1 µM, partner dose 1 µM)", "cleaved PARP positive nuclei fraction": 148},
      {"compound": "O=C(Nc1cccc(Cl)c1)Nc1ncc(CCNc2ncnc3ccsc23)s1", "note": "+ CCc1ccc(CCOc2ccc(CC3SC(=O)NC3=O)cc2)nc1 [pioglitazone] (first compound 0.0008 µM, partner dose 2 µM)", "cleaved PARP positive nuclei fraction": 63.6},
      {"compound": "COCC[n+]1c2c(n(Cc3cnccn3)c1C)C(=O)c1ccccc1C2=O", "note": "+ O=c1cc(-c2cccc3c2Sc2ccccc2S3)oc(N2CCOCC2)c1 [KU55933] (first compound 0.0004 µM, partner dose 1 µM)", "cleaved PARP positive nuclei fraction": 397},
      {"compound": "Nc1cccc2c1CN(C1CCC(=O)NC1=O)C2=O", "note": "(configuration not stated) [lenalidomide] + COc1ccc(-c2ccc3c(N4CCOCC4)nc(N4C[C@@H](C)O[C@@H](C)C4)nc3n2)cc1CO [KU0063794] (first compound 1 µM, partner dose 0.02 µM)", "cleaved PARP positive nuclei fraction": 59.5},
      {"compound": "NC(=O)Nc1cc(-c2cccc(F)c2)sc1C(=O)N[C@H]1CCCNC1", "note": "+ Cn1cc(/C=C2\\C(=O)Nc3cccnc32)c2ccccc21 [GW441756] (first compound 0.02 µM, partner dose 0.4 µM)", "cleaved PARP positive nuclei fraction": 120},
      {"compound": "COc1cc(Nc2ncc(F)c(Nc3ccc4c(n3)NC(=O)C(C)(C)O4)n2)cc(OC)c1OC", "note": "[Tamatinib] + COc1cc(N2CCC(N3CCN(C)CC3)CC2)ccc1Nc1ncc(Cl)c(Nc2ccccc2S(=O)(=O)C(C)C)n1 [NVP-TAE684] (first compound 0.4 µM, partner dose 0.08 µM)", "cleaved PARP positive nuclei fraction": 293},
      {"compound": "NC(=O)Nc1cc(-c2cccc(F)c2)sc1C(=O)N[C@H]1CCCNC1", "note": "+ CCN(CC)CCCCNc1ncc2cc(-c3cc(OC)cc(OC)c3)c(NC(=O)NC(C)(C)C)nc2n1 [PD173074] (first compound 0.02 µM, partner dose 0.1 µM)", "cleaved PARP positive nuclei fraction": 50.2},
      {"compound": "O=C(CCCCCCC(=O)Nc1ccccc1)NO", "note": "[vorinostat] + CCCCCCCCCCCC1=C(O)C(=O)C=C(O)C1=O [Embelin] (first compound 0.08 µM, partner dose 1.2 µM)", "cleaved PARP positive nuclei fraction": 62.6},
      {"compound": "O=C(Nc1cccc(Cl)c1)Nc1ncc(CCNc2ncnc3ccsc23)s1", "note": "+ COc1ccc(-c2ccc3c(N4CCOCC4)nc(N4C[C@@H](C)O[C@@H](C)C4)nc3n2)cc1CO [KU0063794] (first compound 0.0008 µM, partner dose 0.02 µM)", "cleaved PARP positive nuclei fraction": 95.6},
      {"compound": "Cc1nc(Nc2ncc(C(=O)Nc3c(C)cccc3Cl)s2)cc(N2CCN(CCO)CC2)n1", "note": "[dasatanib] + CCN(CC)CCCCNc1ncc2cc(-c3cc(OC)cc(OC)c3)c(NC(=O)NC(C)(C)C)nc2n1 [PD173074] (first compound 0.004 µM, partner dose 0.1 µM)", "cleaved PARP positive nuclei fraction": 376},
      {"compound": "CC1(C)NC(=O)N(c2ccc([N+](=O)[O-])c(C(F)(F)F)c2)C1=O", "note": "[nilutamide] + COc1ccc(COc2ccc(Cc3cnc(N)nc3N)cc2OC)cc1 [GW2580] (first compound 1 µM, partner dose 1 µM)", "cleaved PARP positive nuclei fraction": 25.2},
      {"compound": "COCC[n+]1c2c(n(Cc3cnccn3)c1C)C(=O)c1ccccc1C2=O", "note": "+ CCc1ccc(CCOc2ccc(CC3SC(=O)NC3=O)cc2)nc1 [pioglitazone] (first compound 0.0004 µM, partner dose 2 µM)", "cleaved PARP positive nuclei fraction": 116},
      {"compound": "O=C(CCCCCCC(=O)Nc1ccccc1)NO", "note": "[vorinostat] + COc1ccc(-c2ccc3c(N4CCOCC4)nc(N4C[C@@H](C)O[C@@H](C)C4)nc3n2)cc1CO [KU0063794] (first compound 0.08 µM, partner dose 0.02 µM)", "cleaved PARP positive nuclei fraction": 107},
      {"compound": "COc1cc(Nc2ncc(F)c(Nc3ccc4c(n3)NC(=O)C(C)(C)O4)n2)cc(OC)c1OC", "note": "[Tamatinib] + O=S(=O)(c1ccccc1)N(CC(F)(F)F)c1ccc(C(O)(C(F)(F)F)C(F)(F)F)cc1 [T0901317] (first compound 0.4 µM, partner dose 1.4 µM)", "cleaved PARP positive nuclei fraction": 157},
      {"compound": "NC(=O)Nc1cc(-c2cccc(F)c2)sc1C(=O)N[C@H]1CCCNC1", "note": "+ O=S(=O)(c1ccccc1)N(CC(F)(F)F)c1ccc(C(O)(C(F)(F)F)C(F)(F)F)cc1 [T0901317] (first compound 0.02 µM, partner dose 1.4 µM)", "cleaved PARP positive nuclei fraction": 113},
      {"compound": "Cn1nnc2c(C(N)=O)ncn2c1=O", "note": "[temozolomide] + COc1ccc(-c2ccc3c(N4CCOCC4)nc(N4C[C@@H](C)O[C@@H](C)C4)nc3n2)cc1CO [KU0063794] (first compound 2 µM, partner dose 0.02 µM)", "cleaved PARP positive nuclei fraction": 119},
      {"compound": "Nc1cccc2c1CN(C1CCC(=O)NC1=O)C2=O", "note": "(configuration not stated) [lenalidomide] + c1cc(-c2cnn3cc(-c4ccc(OCCN5CCCCC5)cc4)cnc23)ccn1 [Dorsomorphin] (first compound 1 µM, partner dose 0.4 µM)", "cleaved PARP positive nuclei fraction": 90.7}
    ]}
  ]
}
